Data: the supplement of paper PMC3334620
The full ranking holds about 33,000 sequences; the median of “E-score (-0.5 to 0.5)” is about -0.015, and the highest 2% start at about 0.3. Some of the results follow.

Target: T1, Abf1 (UniProt P14164)
T1 sequence: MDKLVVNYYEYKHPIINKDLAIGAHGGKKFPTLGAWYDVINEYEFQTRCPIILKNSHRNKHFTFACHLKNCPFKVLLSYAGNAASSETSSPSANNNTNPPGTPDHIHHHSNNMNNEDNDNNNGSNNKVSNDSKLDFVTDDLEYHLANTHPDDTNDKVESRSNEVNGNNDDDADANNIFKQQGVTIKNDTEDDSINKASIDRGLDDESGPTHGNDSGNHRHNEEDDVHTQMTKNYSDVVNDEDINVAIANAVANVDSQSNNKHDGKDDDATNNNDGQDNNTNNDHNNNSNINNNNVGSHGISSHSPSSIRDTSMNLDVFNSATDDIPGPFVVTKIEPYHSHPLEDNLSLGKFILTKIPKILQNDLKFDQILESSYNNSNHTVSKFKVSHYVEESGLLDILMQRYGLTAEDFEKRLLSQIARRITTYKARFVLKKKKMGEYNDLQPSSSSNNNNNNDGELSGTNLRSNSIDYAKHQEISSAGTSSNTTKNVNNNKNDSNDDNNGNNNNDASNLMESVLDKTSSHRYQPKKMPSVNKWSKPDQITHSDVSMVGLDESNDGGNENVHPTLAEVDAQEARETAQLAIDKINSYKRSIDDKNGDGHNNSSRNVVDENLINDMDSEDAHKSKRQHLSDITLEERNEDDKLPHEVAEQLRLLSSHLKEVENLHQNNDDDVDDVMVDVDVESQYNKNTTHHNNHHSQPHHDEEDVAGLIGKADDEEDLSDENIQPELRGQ
Test: PBM E-score (8-mer binding enrichment) (E-score (-0.5 to 0.5)); higher = stronger / more preferred TF binding
Details: protein concentration: 200 nM; construct: GST-full length
In short: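 The E-score, a modified Wilcoxon-Mann-Whitney statistic, was computed by the Universal PBM Analysis Suite for every ungapped eight-base word pooled with its reverse complement. Scans behind it were normalised with masliner after bound GST-tagged yeast transcription factors were detected with fluorescent anti-GST. The proteins, at about 100-200 nM, had been applied to universal all-10-mer Agilent arrays made double-stranded by primer extension.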

Row | Sequence | PBM E-score
1 | TGACAACA | 0.273
2 | CACGCGAG | 0.024
3 | GAGCAGAC | -0.14
4 | AGAGGTGG | -0.0683
5 | AGTAAAGG | 0.0977
6 | CTTGGGGA | 0.00223
7 | ACTCGCAT | -0.0243
8 | CACATGCC | -0.142
9 | CCGTAAGG | 0.0402
10 | GTTAGATA | 0.0659
11 | ATGAACGA | 0.233
12 | TGACCAAA | 0.138
13 | AATAATCT | -0.00552
14 | ATTAGGCG | 0.105
15 | GGAACCTA | -0.112
16 | CGCCTACG | 0.0973
17 | ACTGAATG | -0.0197
18 | CTTGCCAA | 0.108
19 | TTCAGGAA | -0.105
20 | AAAGACCA | -0.228
21 | ATGACATC | 0.308
22 | CCCTAGGG | -0.227

Row | Sequence | PBM E-score
23 | CACCTCAA | 0.039
24 | GAACCTCC | -0.0613
25 | GGTGACGA | 0.276
26 | CAGCTCCC | -0.286
27 | AATATCTA | 0.0256
28 | ATTAAACA | 0.161
29 | ATAACTTA | 0.163
30 | AGTGGAAT | -0.0881
31 | CGACTGAG | -0.101
32 | CATTAACA | 0.106
33 | GAGTTGTA | 0.0502
34 | CCCCGCCG | -0.279
35 | CGTTCCTC | -0.0477
36 | AACCGAGG | -0.216
37 | CACTGTTA | -0.0977
38 | CCTAACGC | -0.043
39 | CATCAGTA | 0.00401
40 | AGCTGAAT | -0.0697
41 | AACCGCAG | -0.0768
42 | CATCATGA | 0.298
43 | ACGACTCC | 0.0845
44 | ACCGCTGC | -0.252

Reformatted tab-delimited: entries from further up
Row	Sequence	PBM E-score
29	ATAACTTA	0.163
30	AGTGGAAT	-0.0881
31	CGACTGAG	-0.101

Next entries:

Row | Sequence | PBM E-score
45 | CATTGTAA | -0.0294
46 | ACAGCTGC | -0.201
47 | ATGATTGA | 0.346
48 | ATAACCTG | -0.178
49 | ACCACACA | -0.0452
50 | CTGACCTA | -0.0174
51 | GGAGGGCC | -0.0909
52 | CTCGCTTA | 0.0547
53 | ATCTGCCA | -0.101
54 | ATATGGTC | 0.15
55 | CCACGCAC | -0.0257
56 | AAATTGTT | 0.138
57 | CCTATCGC | -0.0336
58 | ATACCTCG | 0.0867
59 | AAGCGGGC | -0.381
60 | AATCGCGA | 0.176
61 | CCGATCCG | -0.0938
62 | TATGTCAA | 0.159
63 | AGACGGCA | 0.156
64 | ATGGCGCC | -0.174
65 | CCATAAGC | -0.0657
66 | AAGTCGCA | 0.135

Row | Sequence | PBM E-score
67 | AAGAGAGC | -0.139
68 | CCGGTAAA | -0.2
69 | GGCAAGGA | -0.141
70 | CAGCACTG | -0.256
71 | CACTGTAG | 0.108
72 | ATAGATAA | 0.0196
73 | ACTCGACC | -0.157
74 | ACGAGCCA | 0.148
75 | GATTGACC | -0.049
76 | AGCCATCG | -0.147
77 | GACTGATC | 0.0853
78 | AAGCCCGC | -0.249
79 | GCCACAAC | -0.116
80 | CCACAGGC | -0.201
81 | AGAGCGCC | -0.104
82 | AGTACCGA | -0.144
83 | AGACATTC | 0.0909
84 | CCAAAGAA | 0.0575
85 | CAGACCAG | -0.155
86 | CCTGTGCA | -0.0839
